A short description of the data set: general procedure: solution-phase peptide synthesis. The note with it: coupling step.

Boc-S(Bzl)-D(OBZl)-K(Z)-P--OH gave a step yield of 89%.

The values are drawn from patent publication US5114926A (Institut National De La Sante Et De La Recherche Medicale, priority 1986, dated 1992).
